Assay results reported in the supplement of paper PMC12067093, “Discovery and optimisation of a covalent ligand for TRIM25 and its application to targeted protein ubiquitination” (Chemical Science, 2025).
Some of the results follow.

Sequences of proteins named here, by UniProt entry; tags and fusion partners are left off. A change or cut given only in a name is not applied to a line headed by its entry.
UniProt Q9BRT2: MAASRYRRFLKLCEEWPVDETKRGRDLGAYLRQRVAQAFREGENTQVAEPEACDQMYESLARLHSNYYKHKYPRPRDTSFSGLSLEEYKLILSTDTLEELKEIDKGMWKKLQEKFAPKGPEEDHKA
UniProt Q9Y6I4: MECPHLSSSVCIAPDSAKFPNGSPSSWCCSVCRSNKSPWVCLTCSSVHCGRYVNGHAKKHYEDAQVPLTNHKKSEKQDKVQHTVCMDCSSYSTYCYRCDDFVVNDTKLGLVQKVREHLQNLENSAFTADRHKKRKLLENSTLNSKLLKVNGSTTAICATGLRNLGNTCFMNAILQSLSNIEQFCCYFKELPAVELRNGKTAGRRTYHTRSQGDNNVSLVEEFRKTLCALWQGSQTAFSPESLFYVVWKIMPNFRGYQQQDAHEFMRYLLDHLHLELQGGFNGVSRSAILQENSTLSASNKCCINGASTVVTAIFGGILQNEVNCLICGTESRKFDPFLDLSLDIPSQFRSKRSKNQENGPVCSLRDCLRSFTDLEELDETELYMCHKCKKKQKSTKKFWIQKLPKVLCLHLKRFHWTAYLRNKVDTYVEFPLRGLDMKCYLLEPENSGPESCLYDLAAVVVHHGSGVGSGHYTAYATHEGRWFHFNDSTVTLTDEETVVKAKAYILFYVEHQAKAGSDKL
UniProt Q96RL1: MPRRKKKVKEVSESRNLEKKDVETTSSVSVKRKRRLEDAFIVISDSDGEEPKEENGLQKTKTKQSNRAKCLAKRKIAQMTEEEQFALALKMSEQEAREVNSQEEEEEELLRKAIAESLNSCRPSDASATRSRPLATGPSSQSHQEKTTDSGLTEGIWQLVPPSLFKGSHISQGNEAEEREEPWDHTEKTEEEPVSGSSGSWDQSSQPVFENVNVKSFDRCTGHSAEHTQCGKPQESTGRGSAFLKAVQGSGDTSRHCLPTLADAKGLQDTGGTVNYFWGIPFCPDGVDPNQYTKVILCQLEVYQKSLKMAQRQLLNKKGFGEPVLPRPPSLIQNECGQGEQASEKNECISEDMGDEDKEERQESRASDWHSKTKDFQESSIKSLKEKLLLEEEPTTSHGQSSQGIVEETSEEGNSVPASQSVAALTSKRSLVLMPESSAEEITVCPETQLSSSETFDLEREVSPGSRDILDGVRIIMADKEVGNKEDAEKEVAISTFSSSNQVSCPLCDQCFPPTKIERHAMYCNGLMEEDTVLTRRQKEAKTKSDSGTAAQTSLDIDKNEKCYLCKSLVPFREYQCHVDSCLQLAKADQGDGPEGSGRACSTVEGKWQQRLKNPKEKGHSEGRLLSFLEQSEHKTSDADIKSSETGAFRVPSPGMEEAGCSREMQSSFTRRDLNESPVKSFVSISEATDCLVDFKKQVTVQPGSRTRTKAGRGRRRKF
UniProt Q70J99: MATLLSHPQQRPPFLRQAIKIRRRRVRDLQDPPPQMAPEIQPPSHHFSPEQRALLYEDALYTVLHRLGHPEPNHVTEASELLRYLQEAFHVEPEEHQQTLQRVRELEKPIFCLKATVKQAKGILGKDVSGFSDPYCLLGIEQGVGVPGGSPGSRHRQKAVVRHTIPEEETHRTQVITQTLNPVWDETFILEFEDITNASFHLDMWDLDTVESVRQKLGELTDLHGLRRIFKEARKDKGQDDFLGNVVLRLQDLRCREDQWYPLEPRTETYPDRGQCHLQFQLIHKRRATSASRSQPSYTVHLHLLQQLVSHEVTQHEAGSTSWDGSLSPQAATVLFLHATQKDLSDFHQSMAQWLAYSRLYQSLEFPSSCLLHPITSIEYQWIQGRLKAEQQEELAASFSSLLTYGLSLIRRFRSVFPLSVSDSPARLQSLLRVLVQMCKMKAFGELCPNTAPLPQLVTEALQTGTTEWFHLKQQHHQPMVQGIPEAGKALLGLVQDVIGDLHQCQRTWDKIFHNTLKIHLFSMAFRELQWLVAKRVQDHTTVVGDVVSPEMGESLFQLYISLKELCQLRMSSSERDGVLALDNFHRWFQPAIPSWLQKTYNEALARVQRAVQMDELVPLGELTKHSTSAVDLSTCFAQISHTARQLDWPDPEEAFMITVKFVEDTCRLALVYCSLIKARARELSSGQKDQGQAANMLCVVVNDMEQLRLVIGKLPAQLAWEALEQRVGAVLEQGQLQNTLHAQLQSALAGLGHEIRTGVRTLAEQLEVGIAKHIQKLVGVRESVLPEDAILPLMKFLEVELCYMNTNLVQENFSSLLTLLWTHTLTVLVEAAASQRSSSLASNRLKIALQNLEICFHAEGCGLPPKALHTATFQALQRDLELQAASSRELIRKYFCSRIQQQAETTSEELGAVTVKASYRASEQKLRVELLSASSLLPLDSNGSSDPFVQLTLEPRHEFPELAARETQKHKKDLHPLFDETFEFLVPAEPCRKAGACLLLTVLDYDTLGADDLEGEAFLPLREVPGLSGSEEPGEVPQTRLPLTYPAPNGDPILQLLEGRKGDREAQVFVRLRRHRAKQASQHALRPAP
UniProt O60701: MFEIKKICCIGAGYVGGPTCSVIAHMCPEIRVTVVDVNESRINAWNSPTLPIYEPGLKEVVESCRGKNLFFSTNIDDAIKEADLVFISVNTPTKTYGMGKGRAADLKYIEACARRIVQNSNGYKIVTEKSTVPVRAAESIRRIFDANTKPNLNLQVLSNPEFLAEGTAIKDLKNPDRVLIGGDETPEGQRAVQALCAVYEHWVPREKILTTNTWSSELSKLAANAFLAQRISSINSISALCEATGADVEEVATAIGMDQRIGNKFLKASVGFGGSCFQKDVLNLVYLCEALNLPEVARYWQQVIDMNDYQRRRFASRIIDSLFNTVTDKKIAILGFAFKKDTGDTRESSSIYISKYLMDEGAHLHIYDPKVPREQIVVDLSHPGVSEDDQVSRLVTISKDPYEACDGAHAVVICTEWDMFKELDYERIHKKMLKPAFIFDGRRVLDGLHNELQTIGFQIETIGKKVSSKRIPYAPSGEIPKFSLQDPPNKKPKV
UniProt Q96T88: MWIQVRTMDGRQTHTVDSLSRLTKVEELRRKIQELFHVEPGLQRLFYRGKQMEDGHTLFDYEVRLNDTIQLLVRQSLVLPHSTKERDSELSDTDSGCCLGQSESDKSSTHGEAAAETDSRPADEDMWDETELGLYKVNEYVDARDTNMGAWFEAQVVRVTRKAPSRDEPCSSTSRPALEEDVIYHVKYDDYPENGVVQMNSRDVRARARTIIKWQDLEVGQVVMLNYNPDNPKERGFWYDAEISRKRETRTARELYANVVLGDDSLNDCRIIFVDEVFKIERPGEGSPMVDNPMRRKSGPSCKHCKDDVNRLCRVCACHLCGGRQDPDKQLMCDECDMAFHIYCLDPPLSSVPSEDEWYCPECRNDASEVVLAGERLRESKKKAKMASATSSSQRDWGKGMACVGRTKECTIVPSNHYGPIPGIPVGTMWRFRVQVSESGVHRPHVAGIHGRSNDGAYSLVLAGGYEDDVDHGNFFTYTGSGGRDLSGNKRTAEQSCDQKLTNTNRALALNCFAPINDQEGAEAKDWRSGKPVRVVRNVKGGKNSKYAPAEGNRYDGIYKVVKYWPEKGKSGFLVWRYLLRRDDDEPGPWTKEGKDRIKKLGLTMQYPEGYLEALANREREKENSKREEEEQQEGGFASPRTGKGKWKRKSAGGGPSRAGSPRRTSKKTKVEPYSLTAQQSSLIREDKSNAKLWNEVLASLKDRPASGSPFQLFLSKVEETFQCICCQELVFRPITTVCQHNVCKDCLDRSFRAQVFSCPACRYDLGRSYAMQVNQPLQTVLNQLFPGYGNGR
UniProt Q13107: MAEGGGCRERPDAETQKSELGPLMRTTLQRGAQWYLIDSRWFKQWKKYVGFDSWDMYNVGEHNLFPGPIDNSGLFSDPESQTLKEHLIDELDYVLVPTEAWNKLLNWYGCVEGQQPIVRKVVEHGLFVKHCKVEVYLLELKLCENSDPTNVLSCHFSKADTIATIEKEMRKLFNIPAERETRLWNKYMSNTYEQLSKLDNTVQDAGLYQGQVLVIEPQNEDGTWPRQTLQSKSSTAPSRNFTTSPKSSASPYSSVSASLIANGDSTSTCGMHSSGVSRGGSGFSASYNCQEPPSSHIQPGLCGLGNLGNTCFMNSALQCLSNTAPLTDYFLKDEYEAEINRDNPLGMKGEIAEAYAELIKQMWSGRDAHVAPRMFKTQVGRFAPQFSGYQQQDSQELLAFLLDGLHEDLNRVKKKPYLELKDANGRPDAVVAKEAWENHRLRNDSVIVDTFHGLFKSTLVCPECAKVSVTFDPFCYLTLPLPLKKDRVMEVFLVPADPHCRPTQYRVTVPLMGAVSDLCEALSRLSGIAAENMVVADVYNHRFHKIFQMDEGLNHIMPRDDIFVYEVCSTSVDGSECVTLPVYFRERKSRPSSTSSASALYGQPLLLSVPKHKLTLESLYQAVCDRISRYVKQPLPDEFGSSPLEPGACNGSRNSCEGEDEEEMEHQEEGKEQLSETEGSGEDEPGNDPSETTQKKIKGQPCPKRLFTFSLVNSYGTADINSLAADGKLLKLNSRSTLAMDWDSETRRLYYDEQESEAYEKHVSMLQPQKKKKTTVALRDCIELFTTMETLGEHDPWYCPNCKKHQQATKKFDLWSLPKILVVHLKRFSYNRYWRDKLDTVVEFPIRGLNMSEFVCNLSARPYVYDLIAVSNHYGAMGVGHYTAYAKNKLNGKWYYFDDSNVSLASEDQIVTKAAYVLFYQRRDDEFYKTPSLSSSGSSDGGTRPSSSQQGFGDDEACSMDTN
UniProt P54578: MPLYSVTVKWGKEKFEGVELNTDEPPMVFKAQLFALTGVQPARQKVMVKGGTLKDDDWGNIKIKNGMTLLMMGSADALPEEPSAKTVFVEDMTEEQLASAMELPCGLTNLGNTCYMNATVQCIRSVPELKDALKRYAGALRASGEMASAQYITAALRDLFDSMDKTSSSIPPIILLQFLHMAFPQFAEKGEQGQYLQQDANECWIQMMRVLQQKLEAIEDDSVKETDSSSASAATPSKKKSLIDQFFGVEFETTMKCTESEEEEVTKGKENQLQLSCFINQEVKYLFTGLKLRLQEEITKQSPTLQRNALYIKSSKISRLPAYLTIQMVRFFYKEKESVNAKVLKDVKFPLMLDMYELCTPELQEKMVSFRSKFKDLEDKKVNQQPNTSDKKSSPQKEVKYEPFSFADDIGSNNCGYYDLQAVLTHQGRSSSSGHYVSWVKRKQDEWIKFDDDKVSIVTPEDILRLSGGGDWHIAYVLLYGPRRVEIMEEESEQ
UniProt Q9HAU5: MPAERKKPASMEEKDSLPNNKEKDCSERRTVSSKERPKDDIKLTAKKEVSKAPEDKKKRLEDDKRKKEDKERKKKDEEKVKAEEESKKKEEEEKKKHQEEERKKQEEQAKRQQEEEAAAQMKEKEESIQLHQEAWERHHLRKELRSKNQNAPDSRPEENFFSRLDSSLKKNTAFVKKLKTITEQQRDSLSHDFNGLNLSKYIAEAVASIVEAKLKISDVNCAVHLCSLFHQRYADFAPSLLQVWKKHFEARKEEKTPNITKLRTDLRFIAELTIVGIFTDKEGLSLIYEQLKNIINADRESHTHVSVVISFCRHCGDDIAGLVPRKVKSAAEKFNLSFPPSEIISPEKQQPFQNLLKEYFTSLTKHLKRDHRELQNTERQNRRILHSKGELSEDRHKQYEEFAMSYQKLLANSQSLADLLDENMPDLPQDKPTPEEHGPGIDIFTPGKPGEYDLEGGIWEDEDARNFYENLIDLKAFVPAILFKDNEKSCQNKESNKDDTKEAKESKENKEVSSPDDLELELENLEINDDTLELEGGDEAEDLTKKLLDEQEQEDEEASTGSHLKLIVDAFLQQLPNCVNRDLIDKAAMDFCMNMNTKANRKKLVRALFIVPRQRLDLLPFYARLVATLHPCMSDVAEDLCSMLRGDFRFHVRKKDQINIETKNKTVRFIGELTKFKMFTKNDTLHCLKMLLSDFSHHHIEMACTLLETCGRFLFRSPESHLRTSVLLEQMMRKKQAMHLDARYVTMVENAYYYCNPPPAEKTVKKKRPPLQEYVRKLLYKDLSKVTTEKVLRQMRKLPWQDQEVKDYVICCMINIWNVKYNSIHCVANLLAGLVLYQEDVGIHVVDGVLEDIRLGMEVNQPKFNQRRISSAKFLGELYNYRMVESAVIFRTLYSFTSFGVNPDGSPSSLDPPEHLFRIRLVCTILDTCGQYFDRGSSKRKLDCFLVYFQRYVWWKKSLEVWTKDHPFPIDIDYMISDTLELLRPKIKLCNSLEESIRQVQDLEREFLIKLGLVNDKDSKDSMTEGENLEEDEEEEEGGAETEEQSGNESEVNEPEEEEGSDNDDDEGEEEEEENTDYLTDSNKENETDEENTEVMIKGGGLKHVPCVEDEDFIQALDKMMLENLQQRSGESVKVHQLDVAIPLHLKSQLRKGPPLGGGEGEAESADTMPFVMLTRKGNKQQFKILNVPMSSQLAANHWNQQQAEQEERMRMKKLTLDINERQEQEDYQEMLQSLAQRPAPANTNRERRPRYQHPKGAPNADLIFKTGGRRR

Compound: CC1Cc2ccccc2N1C(=O)C1CCCN(C1)C(=O)CCl (mixture of isomers) [TRIM25 ligand 11 (diastereomer mixture)]
Test: probe-labelled cysteine peptide fold change vs DMSO (competition) (log2 fold change); higher = less target engagement (more negative = stronger competition)
Conditions: THP-1, incubation time: 4 h
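Also: competitive chemoproteomic profiling in live THP-1 cells with an iodoacetamide desthiobiotin (IA-DTB) probe, comparing probe-labelled peptide intensities in compound-treated cells against DMSO-treated controls.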

| Target | probe-labelled cysteine peptide fold change (10 µM) | probe-labelled cysteine peptide fold change (50 µM) |
| --- | --- | --- |
| UROS_P10746_14_EDDCGQDPYIR (UniProt P10746) | 0.0942 | -0.0191 |
| USP7_Q93009_300_SFGWETLDSFMQHDVQELCR (UniProt Q93009) | -0.086 | -0.0053 |
| UBTF_P17480_309_DKFDGRPTKPPPNSYSLYCAELMANMK (UniProt P17480) | -0.211 | -0.446 |
| UMPS_P11172_304_CHEFLIFEDRK (UniProt P11172) | -0.114 | -0.0218 |
| UROD_P06132_308_TVTLQGNLDPCALYASEEEIGQLVK (UniProt P06132) | -0.161 | -0.112 |
| UQCC2_Q9BRT2_53_EGENTQVAEPEACDQMYESLAR (UniProt Q9BRT2) | 0.0837 | 0.297 |
| USP34_Q70CQ2_111_HCTTINIDSTWQDESNQAEEPLNIDRECNEGSTER (UniProt Q70CQ2) | -0.166 | -0.0113 |
| UFL1_O94874_708_CVPQIIAFLNSK (UniProt O94874) | 0.0278 | 0.00881 |
| UBTD2_Q8WUN7_152_SDIETLDIPEPPPNSGYECQLR (UniProt Q8WUN7) | 0.131 | 0.153 |
| USP6_P35125_981_IDCGEDR (UniProt P35125) | 0.126 | -0.00629 |
| USP34_Q70CQ2_2062_DTLEGDNMYTCSHCGK (UniProt Q70CQ2) | 0.13 | 0.0298 |
| USP3_Q9Y6I4_98_CDDFVVNDTK (UniProt Q9Y6I4) | 0.0259 | -0.0695 |
| UIMC1_Q96RL1_298_VILCQLEVYQK (UniProt Q96RL1) | -0.000599 | 0.0891 |
| USP16_Q9Y5T5_24_TVPIDDSSETLEPVCR (UniProt Q9Y5T5) | -0.101 | -0.248 |
| UNC13D_Q70J99_276_GQCHLQFQLIHK (UniProt Q70J99) | 0.125 | 0.135 |
| USF1_P22415_248_ACDYIQELR (UniProt P22415) | -0.0926 | -0.184 |
| UPF1_Q92900_657_SILIDESTQATEPECMVPVVLGAK (UniProt Q92900) | 0.0986 | -0.135 |
| UGGT1_Q9NYU2_1475+1479_SLPQEWLWCETWCDDASK (UniProt Q9NYU2) | -0.161 | 0.0507 |

| Target | probe-labelled cysteine peptide fold change (10 µM) | probe-labelled cysteine peptide fold change (50 µM) |
| --- | --- | --- |
| UGDH_O60701_64_EVVESCR (UniProt O60701) | -0.031 | 0.124 |
| UHRF1_Q96T88_316_VCACHLCGGR (UniProt Q96T88) | -0.0741 | 0.0398 |
| USP47_Q96K76_1309_VSTLNVWPLYICDDGAVIFYR (UniProt Q96K76) | -0.154 | -0.305 |
| USP34_Q70CQ2_2033_CQVADMK (UniProt Q70CQ2) | 0.0209 | 0.0671 |
| UHRF1_Q96T88_410_ECTIVPSNHYGPIPGIPVGTMWR (UniProt Q96T88) | 0.0855 | -0.456 |
| USP39_Q53GS9_139_LCSISLSHINAYACLVCGK (UniProt Q53GS9) | -0.0107 | 0.0166 |
| UHRF1_Q96T88_269_ELYANVVLGDDSLNDCR (UniProt Q96T88) | -0.153 | -0.0383 |
| UBR5_O95071_51_QCVVGPNHAAFLLEDGR (UniProt O95071) | 0.022 | 0.185 |
| USP4_Q13107_500_VMEVFLVPADPHCRPTQYR (UniProt Q13107) | -0.0635 | 0.0146 |
| USP4_Q13107_500_DRVMEVFLVPADPHCRPTQYR (UniProt Q13107) | 0.0788 | 0.0752 |
| UIMC1_Q96RL1_691_SFVSISEATDCLVDFKK (UniProt Q96RL1) | -0.0909 | -0.341 |
| USP14_P54578_257_CTESEEEEVTK (UniProt P54578) | -0.0407 | -0.184 |
| UPF2_Q9HAU5_632+641_LVATLHPCMSDVAEDLCSMLR (UniProt Q9HAU5) | 0.24 | 0.226 |
| UNC13D_Q70J99_505_ALLGLVQDVIGDLHQCQR (UniProt Q70J99) | 0.505 | 0.384 |
| UHRF1_Q96T88_744_VEETFQCICCQELVFRPITTVCQHNVCK (UniProt Q96T88) | -0.0365 | 0.124 |
| UQCRC1_P31930_154_AVELLGDIVQNCSLEDSQIEK (UniProt P31930) | 0.0711 | 0.102 |
| UPF3B_Q9BZI7_453_LCPPDDSTK (UniProt Q9BZI7) | -0.062 | 0.0417 |
| UGP2_Q16851_276_RCEFVMEVTNK (UniProt Q16851) | 0.106 | 0.0365 |

Looked up one by one from the list above (2):

| Target | probe-labelled cysteine peptide fold change (10 µM) | probe-labelled cysteine peptide fold change (50 µM) |
| --- | --- | --- |
| USP4_Q13107_500_VMEVFLVPADPHCRPTQYR (UniProt Q13107) | -0.0635 | 0.0146 |
| UGDH_O60701_64_EVVESCR (UniProt O60701) | -0.031 | 0.124 |
